# Test results: paper PMC7819943, “Rice protein-binding microarrays: a tool to detect cis-acting elements near promoter regions in rice”
# Protein sequences, listed by entry. Tags and fused reporters are not part of them.
# UniProt Q0JBA9, entry or part of it: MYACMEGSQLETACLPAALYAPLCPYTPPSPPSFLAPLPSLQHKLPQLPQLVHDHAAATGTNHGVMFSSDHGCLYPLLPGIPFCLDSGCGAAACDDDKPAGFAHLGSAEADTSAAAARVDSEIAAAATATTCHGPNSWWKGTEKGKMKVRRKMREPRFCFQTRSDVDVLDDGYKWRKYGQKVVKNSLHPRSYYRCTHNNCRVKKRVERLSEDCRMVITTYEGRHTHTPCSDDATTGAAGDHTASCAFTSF
# The other results are listed elsewhere or left out.
# Molecular target: OsWRKY34 (Oryza sativa, UniProt Q0JBA9 1-250)
# Assay: protein-binding microarray (RPBM); PBS, 2% BSA, 51.3 ng/ul salmon testes DNA, 50 uM zinc acetate, 200 nM TF, 25 C, 1 h; high values mean tight binding
# Conditions: protein: recombinant; tags: N-terminal polyhistidine and DsRed monomer fusion (pET32a); label: CyDye5-dUTP incorporated in the synthesized complementary strand; 3' TTTTT single-stranded linker to array surface; dsDNA, one strand shown
# Summary of the method: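 Using Ni–NTA, transcription factors fused N-terminally to polyhistidine and DsRed were purified after expression in E. coli BL21-CodonPlus. These were incubated at 200 nM with a blocked, double-stranded custom Agilent array for 1 h at 25 °C in a buffer containing 50 µM zinc acetate, and the array was washed. The binding signal is per-feature fluorescence intensity (arbitrary units) on an Axon 4000B scanner.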
row,Sequence,binding signal
1,ACCTCTGCTGATTCTTCTTGCTGTTTCTTTGTTGCGCATTCGGAGTCACCTAGTGCAG,11500 fluorescence intensity (a.u.)
2,ATCGACCATGGCTACTCTACGTACGATTACCTTGATCACCCGGAGTCACCTAGTGCAG,9670 fluorescence intensity (a.u.)
3,CGTTCTCTCTCTCCTAGAACCACAGTTCAACCACTGTTTCCGGAGTCACCTAGTGCAG,8580 fluorescence intensity (a.u.)
4,CTGTTCTGGTCATTCTGGGCATACATTTGGCTGTATATTACGGAGTCACCTAGTGCAG,8070 fluorescence intensity (a.u.)
5,ATCTTGATAATATTTTTGGGTGGCATTGTCTCGATTTCGACGGAGTCACCTAGTGCAG,9090 fluorescence intensity (a.u.)
6,CAAACCAACTGATGTAGCTGCTTGTGACCTCTCTCGCATCCGGAGTCACCTAGTGCAG,9290 fluorescence intensity (a.u.)
7,ACTCAATTTACAGACTTTGATTTGCTTGCTGAATTCCTCTCGGAGTCACCTAGTGCAG,8200 fluorescence intensity (a.u.)
8,TTCCTCCATCCAGAAGTACTGGTTCCTGCTGTATTTTTCTCGGAGTCACCTAGTGCAG,8140 fluorescence intensity (a.u.)
9,CATTGCAGGTTCGACTTATGCTTTCACCTTTACTTAATCTCGGAGTCACCTAGTGCAG,9640 fluorescence intensity (a.u.)
10,CTCATTAGCTGTTTCTTTCTTATAATTTTAAGCTACACAGCGGAGTCACCTAGTGCAG,9500 fluorescence intensity (a.u.)
11,ACAAACTCCAAACCCATTACTCTCCTCACGACATTCTCGCCGGAGTCACCTAGTGCAG,8670 fluorescence intensity (a.u.)
12,GTGGGTCCTACTATTTTTTATTTTCTTGTTTGATTGACATCGGAGTCACCTAGTGCAG,8040 fluorescence intensity (a.u.)
13,GTTATGAGCACATTTGTCTTGCTTTGGCTGACCTTCCATTCGGAGTCACCTAGTGCAG,8510 fluorescence intensity (a.u.)
14,CATCCGATCGCTAAATCCAACGGCTCATATCGTCTTTCCCCGGAGTCACCTAGTGCAG,8630 fluorescence intensity (a.u.)
15,CCTTGGCCACCCAGTTTACACTATATTTTATGTCGACGACCGGAGTCACCTAGTGCAG,10000 fluorescence intensity (a.u.)
16,GCCCACACTCCAACCTCCCAATTCCTCCATGAACGTAGCCCGGAGTCACCTAGTGCAG,8500 fluorescence intensity (a.u.)
17,CCACTTCTATTTTTAACCTGGCTGCCACATCAGCACATTTCGGAGTCACCTAGTGCAG,8960 fluorescence intensity (a.u.)
18,TTTAGCACATGTTTAACCGTTCGTCTTATTCAAAAAATTTCGGAGTCACCTAGTGCAG,11100 fluorescence intensity (a.u.)
19,CATCAGTTGGCGATTCCCGCTGTATCCTAGAATCTGCTGACGGAGTCACCTAGTGCAG,65000 fluorescence intensity (a.u.)
20,CTCCCTTGTTGCCGTTGATGTGTCCCGCACCGATGTCTCACGGAGTCACCTAGTGCAG,9510 fluorescence intensity (a.u.)
21,CTACTCGGTCTCTCTCTCTCTCTCTCTCGCCGCCGACTCGCGGAGTCACCTAGTGCAG,8420 fluorescence intensity (a.u.)

# A few values from the entries so far:
# Value of CTCCCTTGTTGCCGTTGATGTGTCCCGCACCGATGTCTCACGGAGTCACCTAGTGCAG under binding signal: 9510 fluorescence intensity (a.u.)
# Value of TTCCTCCATCCAGAAGTACTGGTTCCTGCTGTATTTTTCTCGGAGTCACCTAGTGCAG under binding signal: 8140 fluorescence intensity (a.u.)
# Value of CCTTGGCCACCCAGTTTACACTATATTTTATGTCGACGACCGGAGTCACCTAGTGCAG under binding signal: 10000 fluorescence intensity (a.u.)
# Value of ACTCAATTTACAGACTTTGATTTGCTTGCTGAATTCCTCTCGGAGTCACCTAGTGCAG under binding signal: 8200 fluorescence intensity (a.u.)

# Next part:

row,Sequence,binding signal
1,CCAATCTCCACCGCCCGCTTATTTCCTTATCTCTTCCGCACGGAGTCACCTAGTGCAG,8330 fluorescence intensity (a.u.)
2,CTCTTATATTTTGGGACGAGTATCTCCTATCATTCAATTCCGGAGTCACCTAGTGCAG,9960 fluorescence intensity (a.u.)
3,ATCTTCCGTCGTCTCTTTTACCACAATCTCGTCCATACCTCGGAGTCACCTAGTGCAG,8570 fluorescence intensity (a.u.)
4,CTTCTAGTTATTCTCTGTCTTGGTCAATTCTAGCTTGGCCCGGAGTCACCTAGTGCAG,8360 fluorescence intensity (a.u.)
5,CACCGCCATCAATGACTCTGGCCTCTCCAACTCACTAACACGGAGTCACCTAGTGCAG,8830 fluorescence intensity (a.u.)
6,GCATTGTTCTATTTTCTCAAAAACAAGGGTGGGCACGCAACGGAGTCACCTAGTGCAG,9830 fluorescence intensity (a.u.)
7,TGCATCATTTTTTTACTTTTCTTTTTGACTACAAGTATTCCGGAGTCACCTAGTGCAG,8480 fluorescence intensity (a.u.)
8,CGGTGGTGGTGGTGGTGCCTTGGCTAGTTTGGCCGGCGCGCGGAGTCACCTAGTGCAG,14300 fluorescence intensity (a.u.)
9,GAATGGGGATTTCTTTTATATAGATCTGTGCATGTCTGTTCGGAGTCACCTAGTGCAG,8520 fluorescence intensity (a.u.)
10,CATGGTTCTCATTTACTGCTCCATTATTCGTTGTATGCATCGGAGTCACCTAGTGCAG,14300 fluorescence intensity (a.u.)
11,TAGCTTTGGTACGATCTGCAAGTTGCAACTTCTTCATTGTCGGAGTCACCTAGTGCAG,10900 fluorescence intensity (a.u.)
12,TCCACCAACCAACCGCCGCCCCACCTCGCCGCCCGCCGCCCGGAGTCACCTAGTGCAG,8890 fluorescence intensity (a.u.)
13,AGCTATGCATTTCTTTTTTTTCGTTGTCTTCATGTTTTTTCGGAGTCACCTAGTGCAG,11200 fluorescence intensity (a.u.)
14,CTCCTCCGCTACTACCAGTCTACCACCACCACCACCTAGACGGAGTCACCTAGTGCAG,9390 fluorescence intensity (a.u.)
15,CGTGATATCACCCTCATTAACTTTTCTTTGGCCCTTTTTCCGGAGTCACCTAGTGCAG,13100 fluorescence intensity (a.u.)
16,TTGTATTGTATCCTATCCTGCATGCAGAGAGAGATGGTCGCGGAGTCACCTAGTGCAG,8290 fluorescence intensity (a.u.)
17,GTGGTGGTTGAAGTTTTCTATGGCTTTTCTTGACGTCTCGCGGAGTCACCTAGTGCAG,9150 fluorescence intensity (a.u.)
18,GTTGGCGGCGCCTTGCCGGCTTTTGCTGGACTTCTGAAAGCGGAGTCACCTAGTGCAG,8040 fluorescence intensity (a.u.)
19,ATATTCAAACTTCAGTATGTTTACAGTGTTCTCGTTACATCGGAGTCACCTAGTGCAG,8200 fluorescence intensity (a.u.)
20,CCACTGCAACGACCTCCTGCATTCCTTGGCGGCGCCGACCCGGAGTCACCTAGTGCAG,9030 fluorescence intensity (a.u.)
21,TGCACCTTGTTTATCCGCCTACCGTCCTACACTTTTTATACGGAGTCACCTAGTGCAG,10700 fluorescence intensity (a.u.)

row,Sequence,binding signal
1,CCTATGGAATGCCTCTTCCTATGTAAATTTTGGAGGAAATCGGAGTCACCTAGTGCAG,13100 fluorescence intensity (a.u.)
2,AAACACACTGACACGCATTCGGCCCGTTCCCTCGATGCGTCGGAGTCACCTAGTGCAG,8520 fluorescence intensity (a.u.)
3,GGTGGCGGTTGCGGGTGGAGGGCCGCGGCGGTGCGACGAACGGAGTCACCTAGTGCAG,8480 fluorescence intensity (a.u.)
4,GGGGCGCATGGGCGGGTGAGGGGCAGCAGTTGCGGGACGTCGGAGTCACCTAGTGCAG,8420 fluorescence intensity (a.u.)
5,GTGGCGCTCGCCATACCTCGCGCCGCCCGCTGACCAACCCCGGAGTCACCTAGTGCAG,8520 fluorescence intensity (a.u.)
6,GTCTTCACATCATATCATACGTTCTAAAAACTGACCTAAACGGAGTCACCTAGTGCAG,8470 fluorescence intensity (a.u.)
7,TGTTTGTTAGGTTTACCCGAGCTCTTAAAATTTTTTGAATCGGAGTCACCTAGTGCAG,8080 fluorescence intensity (a.u.)
8,GTGTTTGTCATTTTCCTCGTTGCTCTGAACTTCTACGTGTCGGAGTCACCTAGTGCAG,9350 fluorescence intensity (a.u.)
9,TAGGGGTAGGGTTTGCGTGCGCGTGCATTGTGAGTGTCTGCGGAGTCACCTAGTGCAG,11000 fluorescence intensity (a.u.)
10,CTGCTGCTCTTTGTTGGCGTTGCTTGCTGCTGACCAAGCTCGGAGTCACCTAGTGCAG,11500 fluorescence intensity (a.u.)
11,AAAAACCTCGGCTCTCGTCTGCTCGATCGAACAAGTTCCTCGGAGTCACCTAGTGCAG,8610 fluorescence intensity (a.u.)
12,GCTTCCATTAGTGTACTTCCCCAACAAGCTCTTATTTGCCCGGAGTCACCTAGTGCAG,10100 fluorescence intensity (a.u.)
13,ACGGTGTGGGGAGGTAAATTGATTCGCTGTGCTCGATTTTCGGAGTCACCTAGTGCAG,9080 fluorescence intensity (a.u.)
14,GTTGACTTTAACCGTGCTGTGCATCCCATTAATTGGATTACGGAGTCACCTAGTGCAG,8840 fluorescence intensity (a.u.)
15,TTACTTCTTTGAGCCTCTCAGATCTGTTCTTTGTTTGATTCGGAGTCACCTAGTGCAG,11600 fluorescence intensity (a.u.)
16,TACCAACTGCGCTTTGCTCTACACTTACTCCTATCAAAGCCGGAGTCACCTAGTGCAG,9580 fluorescence intensity (a.u.)
17,ACACATCTCCTCGTCGTGCCATCGTGTGACGACGTCTCGTCGGAGTCACCTAGTGCAG,10100 fluorescence intensity (a.u.)
18,ATATTGATCTTGCTGCATTTGATATGCTCAGGCTGTTTTACGGAGTCACCTAGTGCAG,8790 fluorescence intensity (a.u.)
19,ATACTTCTCTCAAGATATCTCTCTGTTCATCCACGCTACCCGGAGTCACCTAGTGCAG,8680 fluorescence intensity (a.u.)
20,TTTAATTATTTTGATTATTTTATCATGACTTATCGGTTGTCGGAGTCACCTAGTGCAG,11100 fluorescence intensity (a.u.)
21,CTTGACACCCACCGACCTACCCCAAGGGCCGAACCAACCACGGAGTCACCTAGTGCAG,8050 fluorescence intensity (a.u.)

row,Sequence,binding signal
1,GTCGGGTGTGTTGAGCTCGGTGGTGGCGGCAGTGAGAAATCGGAGTCACCTAGTGCAG,11000 fluorescence intensity (a.u.)
2,AAATTTGTCTGACAAATGTATAGGTGGTCCCTTGCGGTTTCGGAGTCACCTAGTGCAG,8800 fluorescence intensity (a.u.)
3,CTTGTTTTAGTTTGAATTTTCACTTCTCTATCTATTACATCGGAGTCACCTAGTGCAG,9780 fluorescence intensity (a.u.)
4,GCGTCTTTTTCCAACCTTGTGGATGCTTTCGATCATGCATCGGAGTCACCTAGTGCAG,11600 fluorescence intensity (a.u.)
5,TCTTGTTCTAGTTTCCATATGGCTGAAGACTGAAGTAGCACGGAGTCACCTAGTGCAG,9170 fluorescence intensity (a.u.)
6,CTGCTGAATATTGGTCTCCTTACTGAGGGAGGGGTAACAACGGAGTCACCTAGTGCAG,9900 fluorescence intensity (a.u.)
7,TCGCTCTCGTTGGATTCGGTTTGGTTTGGTTTGGGCCATGCGGAGTCACCTAGTGCAG,18700 fluorescence intensity (a.u.)
8,TTCTGGTTTTGTTGTGTGTCATCACCAGTACATTTTGTTGCGGAGTCACCTAGTGCAG,8560 fluorescence intensity (a.u.)
9,TCCTGCCTCCGCCTTTCTCGCACGCAGGCCGCTTGAGCTCCGGAGTCACCTAGTGCAG,8120 fluorescence intensity (a.u.)
10,ATATATTTAAACTCATGGGCTCACATACTTTTTCCGTTCCCGGAGTCACCTAGTGCAG,9880 fluorescence intensity (a.u.)
11,GTTCTACCGCGCACTCCGCCGCCGCTGATTTTGTTTGACACGGAGTCACCTAGTGCAG,10200 fluorescence intensity (a.u.)
12,CCTGCACCTGGGGTTGGGTCGAGTAGGGCAAACGATCGATCGGAGTCACCTAGTGCAG,8950 fluorescence intensity (a.u.)
13,AATCCTAATCTAGTTCTATTTTTCTTTTTTCTTATTTTTTCGGAGTCACCTAGTGCAG,9630 fluorescence intensity (a.u.)
14,TTCGTATTTGTTTCCGTATCCGGATTATTCATATTCGTTTCGGAGTCACCTAGTGCAG,8050 fluorescence intensity (a.u.)
15,CTCTCCATAGAGGCTGTCTGTCTGTCGTTTCTCTCACTAGCGGAGTCACCTAGTGCAG,9070 fluorescence intensity (a.u.)
16,GCGCGATCCATCACCCGGACCAGCTTCACACCCGCGTAAACGGAGTCACCTAGTGCAG,11600 fluorescence intensity (a.u.)
17,CCCACCAGTCAGTGTCAGTGGACTGGGCCGTTGACCAGACCGGAGTCACCTAGTGCAG,14000 fluorescence intensity (a.u.)
18,GGCATCTCTTTCTTTCGCGTTTTCTCTTCCGCCAGATAGGCGGAGTCACCTAGTGCAG,12300 fluorescence intensity (a.u.)
19,CATCCAGCACCATCCAGGATCTCCCTTGTAATTCCTAAATCGGAGTCACCTAGTGCAG,10300 fluorescence intensity (a.u.)
20,ACACTACGGTCTATATATGGGCCATTCCTAGCAGGTGCACCGGAGTCACCTAGTGCAG,8600 fluorescence intensity (a.u.)
21,AGCATGCCGTTCTCCGGTCAAACCTGCCGTCGCCGCCGTCCGGAGTCACCTAGTGCAG,9380 fluorescence intensity (a.u.)
